Measurements reported in patent US10596166B2, “Combination composition comprising huperzine” (priority 2015, dated 2020).
Some of these results come from one statement about several compounds together.

Tested on: primary cortical neurons injured by glutamate
Test: glutamate toxicity on primary cortical neurons (neuron survival, neurite network)
Type: cell-based, rat
Conditions: glutamate 40 μM, 20 min; 10 μM and 100 μM
Protocol: Rat cortical neurons were cultured as described by Singer et al., 1999 [J. Neuroscience 19(7), 2455-2463] and Callizot et al. 2013 [J. Neurosc. Res. 91(5), 706-716].
Briefly, pregnant females (Wistar; JanvierLabs, St Berthevin, France) at 15 days of gestation were killed by cervical dislocation. Foetuses were collected and immediately placed in ice-cold L15 Leibovitz medium (Pan Biotech, Aidenbach, Germany, Batch: 4120413) with a 2% penicillin (10,000 U/ml) and streptomycin (10 mg/ml) solution (PS; Pan Biotech, Aidenbach, Germany) and 1% bovine serum albumin (BSA; Pan Biotech, Aidenbach, Germany). Cortex was treated for 20 min at 37° C. with a trypsin-EDTA (Pan Biotech, Aidenbach, Germany) solution at a final concentration of 0.05% trypsin and 0.02% EDTA. […] Viable cells were counted in a Neubauer cytometer, using the trypan blue exclusion test. […]
Neuron survival assessment: For each condition 6 wells were assessed, 20 pictures per well were taken using InCell Analyzer™ 1000 (GE Healthcare) with 20× magnification to assess cell bodies (MAP 2 staining). Analysis of picture was done using Developer software (GE Healthcare), the number of neurons per picture was recorded. A mean of neuron number of the 20 pictures was automatically calculated per well, then one data was provided per well (total of 6 raw data were provided per condition). […]

SMILES: COc1cc(/C=C/C(=O)O)ccc1O [FA, ferulic acid]
- neuron survival: > 80%
